About 610 (0.16%) of roughly 390,000 compounds were called active. The inconclusive results got no clear call from the source; some entries with a clear call stand among them for comparison. Calls follow the shape of the dose curve; as a rule, active = well fitted inhibition curve with a large enough effect; inconclusive = small, poorly fitted or top-dose-only effect, or effect the other way, or another doubt; inactive = no such curve, though single readings can be large or run the other way. A potency beside an inconclusive call is a rough fit, not a confirmed value.
Assay: Nrf2 qHTS screen for inhibitors: counterscreen for cytotoxicity
Conditions: A549 ARE-Fluc cells, CellTiter-Fluor viability, 18-24 h; activity change, negative = cytotoxicity: at 46 µM (top of the series)
Procedure, shortened: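 A549 ARE_Fluc cells in 5% FBS OPTI-MEM were exposed to compounds in concentration-response for 18-24 h at 37 deg C. Viability was read by CellTiter-Fluor fluorescence (Ex 405/Em 525) after 30 min, before the luciferase read.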
% is scaled to controls: 0 for no effect and ±100 for the full control effect; potency is read from the fitted curve at half-maximal effect.

| Structure (SMILES) | Potency | activity change, negative = cytotoxicity |
| --- | --- | --- |
| O=[N+]([O-])c1ccc(/C=N/Nc2nc(N3CCCCC3)nc(N3CCCCC3)n2)o1 | inconclusive: 16.4 µM [falling, partial curve, poor fit] | – |
| Cc1nc(C(C)Nc2ncnc3ccc(-c4ccc5c(c4)OCO5)cc23)cs1 (centres undefined) | – | inactive: -1.79% |
| O=C1/C(=C/c2ccc(F)cc2)SC(=S)N1Nc1ncc(C(F)(F)F)cc1Cl | inconclusive: 7.31 µM [falling, single point] | – |
| CCOC(=O)C1(CCOc2ccccc2)CCN(Cc2cccc(OC)c2OC)CC1 | – | inactive: -11.5% |
| O=C(Nc1ccc(F)cc1F)C1CCN(C(=O)c2cnn(-c3ccccc3)c2-n2cccc2)CC1 | – | inactive: -0.742% |
| Cc1cccc(NC(=O)CN2C(=O)N/C(=C\c3cccn3-c3cccc(C(=O)O)c3)C2=O)c1 | inconclusive: 23.1 µM [falling, single point] | – |
| CC1(c2ccc(OCC#N)cc2)C=C(c2ccc(OCC#N)cc2)n2nc(C(F)(F)F)nc2N1 (centres undefined) | inconclusive: 20.6 µM [falling, single point] | – |
| N#Cc1c2n(c3c(=S)nc[nH]c13)CCCCC2 | inconclusive: 29.1 µM [activator, single point] | – |
| COC(=O)c1oc2ccc(Br)cc2c1NC(=O)CN1CCN(C)CC1 | inconclusive: 29.1 µM [activator, partial curve, poor fit] | – |
| CS(=O)(=O)N(CC(=O)N1CCN(Cc2ccccc2)CC1)c1ccc2c(c1)OCCO2 | inconclusive: 20.6 µM [activator, partial curve, poor fit] | – |
| CC(NCC(O)COCCC12CC3CC(CC(C3)C1)C2)c1ccccc1 (centres undefined) | inconclusive: 29.1 µM [falling, single point] | – |
| Cc1ccc(C)c(CN2C(=O)c3ccccc3S(=O)c3ccc(C(=O)N4CCCCC4)cc32)c1 (centres undefined) | inconclusive: 32.6 µM [falling, single point] | – |
| Cc1cc(Nc2cccc(Cl)c2)nc(N2CCOCC2)n1 | inconclusive: 3.26 µM [activator, full curve, poor fit] | – |
| O=S(=O)(NCC(c1ccccc1)N1CCc2ccccc21)c1ccc(Cl)cc1 (centres undefined) | inconclusive: 29.1 µM [falling, partial curve, poor fit] | – |
| COc1c[nH]n(C2CCCCC2)c(=O)c1=O | – | inactive: -1.99% |
| Cc1ccc2c(CN3CCCCC3C)cc(=O)oc2c1C (centres undefined) | inconclusive: 16.4 µM [activator, partial curve, poor fit] | – |
| O=C1N[C@@H](Cc2c[nH]c3ccccc23)COC(=O)[C@H](Cc2ccc(F)cc2)C/C=C\C[C@H]1CC(=O)N(CCO)Cc1ccccc1 | inconclusive: 20.6 µM [falling, partial curve, poor fit] | – |
| COc1ccc(/C=c2\s/c(=C\C(=O)C(C)(C)C)[nH]c2=O)cc1O | inconclusive: 9.2 µM [falling, partial curve] | – |
| CC(Nc1n[nH]c(=S)[nH]c1=O)C(=O)OCc1ccccc1 (centres undefined) | inconclusive: 0.82 µM [activator, full curve] | – |
| Cc1cccc(C)c1-n1c(C)cc(/C=C2\C(=O)NN(c3ccccc3)C2=O)c1C | active: 20.6 µM | – |
| C/C(=N\Nc1cc(-c2ccccc2)nc(-c2ccc(Br)cc2)n1)c1cccc(N)c1 | – | inactive: -21.8% |
| CC1C2=C(CC(C)(C)CC2=O)NC2=C1C(=O)CC(C)(C)C2 | inconclusive: 13 µM [activator, partial curve] | – |

| Structure (SMILES) | Potency | activity change, negative = cytotoxicity |
| --- | --- | --- |
| Nc1ccc(C(=O)OCC(=O)Nc2cc([N+](=O)[O-])ccc2F)cc1 | inconclusive: 20.6 µM [activator, single point] | – |
| CCOc1ccc(N(CC)S(=O)(=O)N2CCCC(C(=O)NCc3ccccc3OCC)C2)cc1 (centres undefined) | – | inactive: 4.12% |
| Cc1ccc(C)c(C(=O)OCC(=O)Nc2cccc(S(=O)(=O)N3CCCCC3)c2)c1 | inconclusive: 18.4 µM [falling, single point] | – |
| CCOC(=O)C1=C(CN2CCN(c3ccc(Cl)cc3)CC2)NC(=O)NC1c1ccc(F)cc1 (centres undefined) | inconclusive: 29.1 µM [falling, partial curve, poor fit] | – |
| COc1cc2c(cc1OC)CN(S(=O)(=O)c1cccs1)CC2 | – | inactive: -0.772% |
| O=C(Nc1ccc(N2CCOCC2)c(Cl)c1)c1ccc([N+](=O)[O-])o1 | – | inactive: -4.96% |
| CC(C)(C)c1ccc(Cn2nnc3c(=O)[nH]c(C4CCN(C(=O)c5ccco5)CC4)nc32)cc1 | inconclusive: 29.1 µM [falling, single point] | – |
| N#Cc1c2ccc(O)cc2n2ccccc12 | inconclusive: 29.1 µM [activator, single point] | – |
| CCCCCNC1=CC(=O)CC(c2ccccc2)C1 (centres undefined) | inconclusive: 16.4 µM [falling, partial curve, poor fit] | – |
| CC(C)(C)c1ccc(OCCNC(=S)Nc2ccccc2)cc1 | inconclusive: 23.1 µM [falling, single point] | – |
| COCc1cc(=O)[nH]c(Nc2nc3ccccc3o2)n1 | inconclusive: 25.1 µM [falling, single point] | – |
| COC(=O)C1=C(C)NC(=O)/C1=C\c1cc(C)n(-c2ccccc2)c1C | – | inactive: -16.5% |
| CC(C)Oc1ccc(S(=O)(=O)N2CCCCC2)cc1NC(=O)C1CCCC1 | – | inactive: 4.89% |
| O=C(Nc1cccc(S(=O)(=O)N2CCCCCC2)c1)C1CCN(C(=O)c2ccc(Cl)cc2)CC1 | inconclusive: 25.9 µM [falling, single point] | – |
| O=C(NC(NC(=S)Nc1ccccc1O)C(Cl)(Cl)Cl)c1ccco1 (centres undefined) | inconclusive: 25.9 µM [falling, single point] | – |
| CCOC(=O)C(C)Oc1cccc2c(=O)n(CC(=O)NCc3ccco3)ccc12 (centres undefined) | inconclusive: 0.58 µM [falling, partial curve, poor fit] | – |
| O=C1CCCN1c1ccc(S(=O)(=O)N2CCCCC2)cc1[N+](=O)[O-] | – | inactive: 2.73% |
| COc1cc(NC(=O)c2cc(-c3ccccc3Cl)on2)cc(OC)c1OC | inconclusive: 3.66 µM [falling, partial curve, poor fit] | – |
| Cc1ccc2nsnc2c1S(=O)(=O)N(Cc1cc2cccc(C)c2[nH]c1=O)CC1CCCO1 (centres undefined) | – | inactive: -10.8% |
| COc1ccc(-c2c(C#N)c(N)nc3sc(C(=O)c4ccc(C)cc4)c(N)c23)cc1 | inconclusive: 4.61 µM [activator, partial curve, poor fit] | – |
| C=C1CC(Cn2cc(Br)c(=O)[nH]c2=O)(c2ccc(-c3ccccc3)cc2)OC1=O (centres undefined) | inconclusive: 29.1 µM [falling, partial curve, poor fit] | – |
| Cc1cc(C)nc(Sc2ccc([N+](=O)[O-])cc2[N+](=O)[O-])n1 | inconclusive: 18.4 µM [falling, single point] | – |

| Structure (SMILES) | Potency | activity change, negative = cytotoxicity |
| --- | --- | --- |
| CCC(CC)C(=O)Nc1cccc(-c2cn3cccnc3n2)c1 | – | inactive: -5.56% |
| c1ccc(C(c2ccccc2)N2CCN(Cc3nnnn3C3CCCCC3)CC2)cc1 | inconclusive: 4.11 µM [falling, single point] | – |
| Cc1ccc(Oc2ccc(S(=O)(=O)N3CCOCC3)cc2C(N)=O)c(-n2nc3ccccc3n2)c1 | inconclusive: 13 µM [falling, partial curve] | – |
| Cn1cc(C(=O)N/N=C/C=C/c2ccccc2)ccc1=O | – | inactive: 5.22% |
| COc1ccc(-c2nc(-c3ccccc3)c(-c3cccs3)[nH]2)cc1OC | inconclusive: 16.4 µM [falling, partial curve, poor fit] | – |
| CCOc1cc(CNC(=O)c2cc(-c3ccc(Cl)s3)nc3ccccc23)ccc1OC | – | inactive: -1.21% |
| N#CC(C#N)=C1C=CC=CN1/C(=C\c1ccco1)C(=O)c1ccc(Cl)cc1 | inconclusive: 29.1 µM [falling, single point] | – |
| NCC(=O)Nc1cccc(-c2nn3c(=O)cc(N4CCNCC4)nc3s2)c1 | – | inactive: -1.5% |
| O=C(COc1ccccc1)NC1CCCCCCC1 | inconclusive: 14.6 µM [activator, partial curve, poor fit] | – |
| CCCN(CCC)CCCNC(=S)Nc1ccc2nc(N3CCCC3)cc(C)c2c1 | inconclusive: 20.6 µM [falling, partial curve, poor fit] | – |
| C#CCOc1c(Br)cc(C2C(C(=O)OC)=C(C)NC3=C2C(=O)c2ccccc23)cc1OCC (centres undefined) | inconclusive: 5.17 µM [falling, full curve, poor fit] | – |
| Cc1ccc(C)c(N(CC(=O)NC2CCCC2)C(=O)c2oc(C(C)(C)C)cc2C)c1 | inconclusive: 29.1 µM [falling, single point] | – |
| C=CCN1c2ccccc2[C@]23C[C@@H](C(=O)OC)N(C(=O)c4cccs4)C2=NC(C(=O)OC)=C(C(=O)OC)[C@H]13 | inconclusive: 16.4 µM [falling, single point] | – |
| Cc1cc(C)c2nc(C(F)(F)F)nc(NCCCN3CCCC3=O)c2c1 | inconclusive: 32.6 µM [falling, partial curve, poor fit] | – |
| O=C(CSc1c2c(nc3ccc(Cl)cc13)CCCC2)N1CCN(c2ccc(Cl)cc2)CC1 | inconclusive: 2.91 µM [falling, partial curve, poor fit] | – |
| Cc1ccc(-c2nnc(Nc3cccc(Br)c3)c3ccccc23)cc1S(=O)(=O)N1CCN(C)CC1 | inconclusive: 29.1 µM [falling, single point] | – |
| CC(C)n1c(O)c(N=NC(=O)CNC(=O)Cc2ccc(Cl)cc2)c2ccccc21 | – | inactive: -6.42% |
| CCOc1ccc(OCc2ccc(C(=O)N3N=C(C(F)F)CC3(O)C(F)F)o2)cc1 (centres undefined) | inconclusive: 29.1 µM [falling, single point] | – |
| Oc1c(Br)cc(C2N=C(c3ccccc3)NO2)cc1Br (centres undefined) | – | inactive: 1.46% |
| COCCN(C(=S)Nc1cc(C)cc(C)c1)C(C)c1cccs1 (centres undefined) | inconclusive: 25.9 µM [activator, partial curve, poor fit] | – |

Molecules above containing fluorine (eight):

| Structure (SMILES) | Potency | activity change, negative = cytotoxicity |
| --- | --- | --- |
| O=C1/C(=C/c2ccc(F)cc2)SC(=S)N1Nc1ncc(C(F)(F)F)cc1Cl | inconclusive: 7.31 µM [falling, single point] | – |
| O=C(Nc1ccc(F)cc1F)C1CCN(C(=O)c2cnn(-c3ccccc3)c2-n2cccc2)CC1 | – | inactive: -0.742% |
| CC1(c2ccc(OCC#N)cc2)C=C(c2ccc(OCC#N)cc2)n2nc(C(F)(F)F)nc2N1 (centres undefined) | inconclusive: 20.6 µM [falling, single point] | – |
| O=C1N[C@@H](Cc2c[nH]c3ccccc23)COC(=O)[C@H](Cc2ccc(F)cc2)C/C=C\C[C@H]1CC(=O)N(CCO)Cc1ccccc1 | inconclusive: 20.6 µM [falling, partial curve, poor fit] | – |
| Nc1ccc(C(=O)OCC(=O)Nc2cc([N+](=O)[O-])ccc2F)cc1 | inconclusive: 20.6 µM [activator, single point] | – |
| CCOC(=O)C1=C(CN2CCN(c3ccc(Cl)cc3)CC2)NC(=O)NC1c1ccc(F)cc1 (centres undefined) | inconclusive: 29.1 µM [falling, partial curve, poor fit] | – |
| Cc1cc(C)c2nc(C(F)(F)F)nc(NCCCN3CCCC3=O)c2c1 | inconclusive: 32.6 µM [falling, partial curve, poor fit] | – |
| CCOc1ccc(OCc2ccc(C(=O)N3N=C(C(F)F)CC3(O)C(F)F)o2)cc1 (centres undefined) | inconclusive: 29.1 µM [falling, single point] | – |

Looked up one by one from the entries so far (2):

| Structure (SMILES) | Potency | activity change, negative = cytotoxicity |
| --- | --- | --- |
| Cc1ccc(Oc2ccc(S(=O)(=O)N3CCOCC3)cc2C(N)=O)c(-n2nc3ccccc3n2)c1 | inconclusive: 13 µM [falling, partial curve] | – |
| C#CCOc1c(Br)cc(C2C(C(=O)OC)=C(C)NC3=C2C(=O)c2ccccc23)cc1OCC (centres undefined) | inconclusive: 5.17 µM [falling, full curve, poor fit] | – |
